Results taken from patent publication US9546157B2, “Asymmetric piperidinyl-substituted ureas as medicines” (Helsinn Healthcare SA, priority 2014, dated 2017).
pEC50, pIC50: −log10 of the molar value. The structures given here were assigned with low confidence; some may be wrong.

Protein sequences, listed by entry. Tags and fused reporters are not part of them.
UniProt Q92847, whole entry: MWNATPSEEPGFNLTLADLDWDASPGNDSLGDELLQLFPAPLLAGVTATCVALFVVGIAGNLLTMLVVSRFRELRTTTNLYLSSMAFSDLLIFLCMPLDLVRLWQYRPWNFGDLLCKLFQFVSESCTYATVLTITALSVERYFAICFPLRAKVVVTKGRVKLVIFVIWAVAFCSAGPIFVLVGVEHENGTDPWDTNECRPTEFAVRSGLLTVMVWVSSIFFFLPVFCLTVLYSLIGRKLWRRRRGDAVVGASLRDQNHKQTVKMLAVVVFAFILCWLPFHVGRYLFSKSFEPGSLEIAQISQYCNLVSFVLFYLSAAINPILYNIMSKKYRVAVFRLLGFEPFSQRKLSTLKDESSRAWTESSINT

Assays:
GHSR1a [1] = molecular target: T1, GHSR1a (Homo sapiens, UniProt Q92847); assay: Calcium FLIPR assay, GHSR-1a agonism; set-up: Emax: unit not given here; details: HEK293/GHSR1a cells
Method: (§1) The intracellular calcium assay was carried out in a 384-well format FLIPR™ (Molecular Device) HEK293/GHSR1a cell line. Cells were seeded 24 hr prior to the experiments at an optimal density per well. Preincubation with selected calcium dye lasted for 30-60 min at room temperature or 37° C. Test compounds, dissolved in DMSO, were added at the appropriate time and incubated for 15 min followed by the addition of ghrelin with FlexStation or FLIPR. Relative fluorescence was monitored by the FLIPR™ Molecular Device. EC50 and IC50 values were estimated from dose-response data using GraphPad Prism software. To check for GHSR-1a agonism the compound was added at t=20 sec. and the calcium response was followed for 2 minutes. To check for GHSR-1a antagonism the compound and Ghrelin (10 nM) were added to the cells at t=20 sec. and the calcium response was measured for 2 minutes. The potency of the antagonist was calculated by its ability to reduce the ghrelin response. Dose-response curves were made for relevant antagonists.

GHSR1a [2] = molecular target: T1, GHSR1a; assay: Calcium FLIPR assay, GHSR-1a antagonism (reduction of ghrelin response); details: HEK293/GHSR1a cells, ghrelin 10 nM
Method: as §1

C57BL/6J mice = assay: Food intake test in mouse (GHSR1a antagonists); details: i.p. 10 mg/kg
Method: Male C57BL/6J mice, 18-22 g body weight, were fasted overnight (16 h before compound administration) and placed in a regular light dark cycle (6:00-18:00 light/18:00-6:00 dark). After 1 wk acclimation, animals were sorted into two groups (n=6 each, 2 per cage) based on body weight. Animals in group one were be treated with vehicle and animals in group 2 were treated with the test agent (n=6 for each group). The cumulative food intake was evaluated at 1, 2, 4, 8 and 24 hrs after drug or vehicle treatment. Food intake was measured by subtracting uneaten food from the initial premeasured food.

Compound | pEC50 (GHSR1a [1]) | Emax (GHSR1a [1]) | pIC50 (GHSR1a [2]) | Mouse Food Intake inhibition, activity up to (C57BL/6J mice) [h] | Mouse Food Intake % Inhibition (C57BL/6J mice; at 1 h) [%]
CN1CCC(N(C)C(=O)NC(C#N)c2ccc(I)c(Br)c2Cl)CC1 (centres unmarked) | 9.00 | 5075 | 8.52 | – | –
COC(=O)c1cnc(-c2ccc(C(C)NC(=O)N(C)C3CCN(C)CC3)c(Cl)c2Cl)cn1 (centres unmarked) | < 4.52 | – | 6.50 | – | –
CN1CCC(N(C)C(=O)NC(C#N)c2ccc(-c3cncc(-c4ccc[nH]4)c3)c(Cl)c2Cl)CC1 (centres unmarked) | < 4.52 | – | 7.41 | – | –
CN1CCC(N(C)C(=O)NC(C#N)c2ccc(-c3cn[nH]c3)c(Cl)c2Cl)CC1 (centres unmarked) | < 4.52 | – | 7.32 | ≤ 8 | 57
CN1CCC(N(C)C(=O)NC(CO)c2ccc(-c3cccs3)c(Cl)c2Cl)CC1 (centres unmarked) | 8.22 | 2280 | 8.70 | – | –
